Results are given in words; binding and its absence hold for the method and conditions named. Some results given as binding are weak or reduced against the parent protein; the word gives no strength.
Legend:
[1] = biological target: JMJD7 (mouse), JMJD7 protein alone generated from GST-JMJD7 fusion protein (mouse) (UniProt P0C872); assay: crystal structure; mJMJD7 (from GST-mJMJD7, tag removed, 10 mg/ml), vapor diffusion, 0.1 M MES monohydrate pH6.0, 10% PEG4000, 4 °C; in the presence of α-KG; two molecules in one asymmetric unit; both purified
[2] = biological target: MBP-JMJD7 fusion protein (with a truncated linker) (mouse) (UniProt P0C872); assay: crystal structure; MBP-JMJD7 (20 mg/ml), vapor diffusion, 100 mM Citrate Sodium, 20% PEG 3350, 4 °C; in the absence of α-KG; two molecules in one asymmetric unit; both purified

The chains behind the UniProt entries cited, without tags or fusion partners.
UniProt P0C872: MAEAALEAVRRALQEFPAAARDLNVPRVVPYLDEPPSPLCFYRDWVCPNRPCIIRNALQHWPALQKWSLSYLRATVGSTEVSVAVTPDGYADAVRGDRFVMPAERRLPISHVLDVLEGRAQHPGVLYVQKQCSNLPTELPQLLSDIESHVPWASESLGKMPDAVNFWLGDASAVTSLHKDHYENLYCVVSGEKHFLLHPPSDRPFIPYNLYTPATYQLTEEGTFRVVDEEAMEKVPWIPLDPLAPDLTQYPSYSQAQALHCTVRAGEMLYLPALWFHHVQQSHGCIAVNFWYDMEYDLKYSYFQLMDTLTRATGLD

binding [1] | binding [2] | Substance
binds |  | JMJD7 (mouse), JMJD7 protein alone generated from GST-JMJD7 fusion protein (from UniProt P0C872 1-316) (enzyme)
 | binds | MBP-JMJD7 fusion protein (with a truncated linker) (from UniProt P0C872 1-316) (enzyme)
